From US20020037902A1 (priority 2000, published 2002)
Like-named read-outs stand apart in the source and are kept apart here.

Tested on: oligodendrocytes
Settings: 48 hours

Nc1nc2ccc(OC(F)(F)F)cc2s1 [Riluzole, 2-amino-6-trifluoromethoxy-benzothiazole]
Toxic effect on the survival of the oligodendrocytes (riluzole alone at the dose of about 10 mM): slightly toxic effect | Toxic effect on the survival of the oligodendrocytes (riluzole alone at the doses of 0.01 mM to 10 mM): no toxic effect
